{"source": "patent US20220339243A1", "about": "“COMPOSITIONS AND SYNERGISTIC METHODS FOR TREATING INFECTIONS” (BioAegis Therapeutics Inc., priority 2019, published 2022)", "origin": "cited, not measured here", "tested_on": "S. pneumoniae isolates", "conditions": "pediatric population; Cai et al. 2018; cited from earlier work", "note": "For at least one compound, name, drawing or mass did not settle the structure.", "data": [{"smiles": "CN(C)[C@@H]1C(O)=C(C(N)=O)C(=O)[C@@]2(O)C(O)=C3C(=O)c4c(O)cccc4[C@@](C)(O)[C@H]3C[C@@H]12", "note": "[tetracycline]", "values": [{"measurement": "resistance of S. pneumoniae isolates from invasive infections", "value": 77, "unit": "%"}]}]}
